Experiment in all cases: co-IP
Assay [1] deals with 3X FLAG-ER81 (mouse) (UniProt P41164).
Assay [2] has as its target ER81, endogenous in mouse olfactory bulb (mouse (endogenous in olfactory bulb)) (UniProt P41164).
In assay [3] the target is ZIC3, endogenous in mouse olfactory bulb (mouse (endogenous in olfactory bulb)) (UniProt Q62521).
In assay [4] the target is 3X FLAG-ER81 (mouse) (UniProt P41164). The source holds these as a separate data set.

Amino acid sequences for entries named in this document (tags omitted).
UniProt P41164: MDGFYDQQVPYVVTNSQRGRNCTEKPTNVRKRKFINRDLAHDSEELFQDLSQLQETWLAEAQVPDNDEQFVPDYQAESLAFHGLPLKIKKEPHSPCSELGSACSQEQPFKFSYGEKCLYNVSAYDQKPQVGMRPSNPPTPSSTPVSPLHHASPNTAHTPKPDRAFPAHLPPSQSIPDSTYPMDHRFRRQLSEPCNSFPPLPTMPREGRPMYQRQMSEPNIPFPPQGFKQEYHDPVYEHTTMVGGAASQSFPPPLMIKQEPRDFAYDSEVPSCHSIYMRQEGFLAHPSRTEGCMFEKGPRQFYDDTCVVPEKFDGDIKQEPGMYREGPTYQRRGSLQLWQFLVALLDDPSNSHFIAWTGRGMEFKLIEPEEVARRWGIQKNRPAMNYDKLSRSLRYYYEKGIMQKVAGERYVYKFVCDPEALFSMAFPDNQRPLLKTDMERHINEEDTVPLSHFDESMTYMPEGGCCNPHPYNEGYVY
UniProt Q62521: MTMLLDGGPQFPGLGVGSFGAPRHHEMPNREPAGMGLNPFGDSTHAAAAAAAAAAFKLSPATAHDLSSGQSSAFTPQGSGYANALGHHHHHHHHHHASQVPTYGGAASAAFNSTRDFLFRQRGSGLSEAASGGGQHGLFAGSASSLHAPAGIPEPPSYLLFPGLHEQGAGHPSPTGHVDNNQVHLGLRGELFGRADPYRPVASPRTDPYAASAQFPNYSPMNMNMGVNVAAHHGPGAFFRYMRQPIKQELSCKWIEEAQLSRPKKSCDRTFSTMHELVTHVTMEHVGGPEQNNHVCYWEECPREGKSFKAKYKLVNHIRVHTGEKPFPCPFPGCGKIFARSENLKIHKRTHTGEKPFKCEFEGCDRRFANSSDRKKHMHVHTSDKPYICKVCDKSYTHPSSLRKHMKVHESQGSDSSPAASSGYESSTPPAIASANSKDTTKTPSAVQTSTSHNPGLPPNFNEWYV
UniProt P46684: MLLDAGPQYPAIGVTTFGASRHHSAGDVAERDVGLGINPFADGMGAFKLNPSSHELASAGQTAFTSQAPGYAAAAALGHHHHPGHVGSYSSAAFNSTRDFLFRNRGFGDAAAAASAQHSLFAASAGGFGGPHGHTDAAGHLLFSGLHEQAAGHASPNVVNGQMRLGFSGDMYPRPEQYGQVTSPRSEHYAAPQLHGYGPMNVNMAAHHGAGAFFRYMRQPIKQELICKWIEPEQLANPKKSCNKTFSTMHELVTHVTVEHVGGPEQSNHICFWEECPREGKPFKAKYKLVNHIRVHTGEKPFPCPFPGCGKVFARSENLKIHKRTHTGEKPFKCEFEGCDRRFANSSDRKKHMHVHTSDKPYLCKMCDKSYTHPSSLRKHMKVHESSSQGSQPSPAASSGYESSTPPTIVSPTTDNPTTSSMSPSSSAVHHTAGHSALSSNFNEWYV

Like-named read-outs stand apart in the source and are kept apart here. Results are given in words; binding and its absence hold for the method and conditions named. Binding seen in cells or lysates may run through a third protein. Some entries that bind do so weakly or less than the wild type.

In the case of ZIC1 (from UniProt P46684 1-447), the binding result with 3X FLAG-ER81 (mouse) [1] is listed as “no binding”.

Turning to “ZIC3, endogenous in mouse olfactory bulb (from UniProt Q62521 1-466)”, the binding result in assay [2] is “binds”.

For “ER81, endogenous in mouse olfactory bulb (from UniProt P41164 1-477)”, the binding result in assay [3] is “binds”.

With “ZIC3-GST (full length ZIC3, Zinc finger transcription factor of Cerebellum 3) (from UniProt Q62521 1-466)”, the binding result in the assay with 3X FLAG-ER81 (mouse) [1] and with 3X FLAG-ER81 (mouse) [4] was “binds” throughout.

The values are drawn from doi:10.1101/2022.10.30.514394.
